# Results deposited as PubChem BioAssay AID1224828 (NIAID, 2016)
# Purpose: 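Regulators linking TLR4 signalling to p65 nuclear translocation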 (primary screen)
# Cell system: mouse RAW264.7 G9 macrophage reporter cells (GFP-p65, Tnf promoter-mCherry)
# Reagent: siRNA pool against mouse genes, 100 nM
# Time to read-out: 2 days siRNA transfection, then 40 min LPS before fixation
# Conditions: LPS (Salmonella minnesota R595) at 10 ng/ml
# Detection: 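Imaged p65 nuclear translocation ratio, normalised to the plate median, converted to robust z-scores and averaged across two replicates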
# Reading the numbers: p65 translocation robust z-score: higher = more nuclear NF-kappaB p65 after LPS than the plate median; nuclear/cytoplasmic p65 ratio: higher = more nuclear NF-kappaB p65
# Call rule: 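Called active when z exceeds 3.3 or falls under -1.56 (median of Tlr4 controls), giving activity score of at least 50; no calls for control wells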
# Calls: active = hit (p65 shift raised or lowered); inactive = no clear change
# Shown is a random part of about 17,000 reagents. 762 of all reagents (4.5%) were called active. 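Active calls include both raised and lowered p65 entry, mostly lowered; wells with fewer than 50 cells lack a z-score.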 Raw values are not corrected between plates. Entries without a mark were called inactive. The numbers tell different reagents against one gene apart. A reagent listed more than once was tested more than once; the source does not tell the runs apart.
target gene,reagent no.,p65 translocation robust z-score,"nuclear/cytoplasmic p65 ratio, rep 1","nuclear/cytoplasmic p65 ratio, rep 2",low cell count flag
Ankrd49,1,-0.76,1.4,1.43,enough cells to score
Ccdc9,1,0.15,1.66,1.76,enough cells to score
Vmn2r10,1,,1.14,1.2,fewer than 50 cells per well; well left out of scoring
Gabra4,1,0.58,1.52,1.44,enough cells to score
Mmp28,1,-1.12,1.3,1.19,enough cells to score
Tef,1,0.9,1.65,1.64,enough cells to score
Il17rd,1,,1.47,1.65,fewer than 50 cells per well; well left out of scoring
Il17rd,2,,1.28,1.34,fewer than 50 cells per well; well left out of scoring
Krabd3,1,0.75,1.51,1.6,enough cells to score
Acsbg1,1,,1.35,1.1,fewer than 50 cells per well; well left out of scoring
Apobec3,1,-0.27,1.58,1.58,enough cells to score
Dennd5a,1,-1.31,1.19,1.09,enough cells to score
Ano4,1,,1.23,0,fewer than 50 cells per well; well left out of scoring
Serpinb11,1,,1.27,1.42,fewer than 50 cells per well; well left out of scoring
Flrt3,1,0.52,1.62,1.58,enough cells to score
Xpot,1,0.76,1.63,1.6,enough cells to score
Cdc42se2,1,0.77,1.81,1.49,enough cells to score
Cdc42se2,1,2.06,1.75,1.65,enough cells to score
Necap2,1,,1.56,1.69,fewer than 50 cells per well; well left out of scoring
Nfat5,1,2.19,1.65,1.7,enough cells to score
Fbxo11,1,-0.32,1.31,1.32,enough cells to score
Klra4,1,-1.03,1.22,1.25,enough cells to score
Rgs9,1,-1.51,1.3,1.24,enough cells to score
Myo3a,1,0.48,1.8,1.41,enough cells to score
Atp6v1c1,1,-0.8,1.32,1.56,enough cells to score
Taar8b,1,1.05,1.62,1.77,enough cells to score
Trp53,1,-0.7,1.44,1.38,enough cells to score
Mims1,1,0.86,1.28,1.41,enough cells to score
Alyreffm1,1,-0.3,1.19,1.31,enough cells to score
Rcc1l,1,1.28,1.62,1.37,enough cells to score
Cmya5,1,0.02,1.36,1.62,enough cells to score
Sv2a,1,2.66,1.78,1.24,enough cells to score
Zfp809,1,-1.17,1.5,1.53,enough cells to score
3110040N11Rik,1,,1.31,1.34,fewer than 50 cells per well; well left out of scoring
Cmtm4,1,0.62,1.68,1.89,enough cells to score
1700041G16Rik,1,0.94,1.31,1.54,enough cells to score
Pola1,1,0.74,1.59,1.51,enough cells to score
Or52b2,1,,1.63,1.22,fewer than 50 cells per well; well left out of scoring
Bloc1s1,1,-0.88,1.37,1.4,enough cells to score
1810030O07Rik,1,2,1.73,1.44,enough cells to score

2 entries from above, limited to “low cell count flag”:
Il17rd #2: fewer than 50 cells per well; well left out of scoring
Krabd3: enough cells to score
